This is one part of the list.
Key:
Test in all cases: glycan array binding signal (z-score within array); higher = stronger binding
Conditions in all cases: glycan notation: IUPAC condensed, linker removed
[1] = target: GalNAc(b1-4)GlcNAc(b1-2)Man
In short: (§1)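 The Consortium for Functional Glycomics database supplied 3228 glycan arrays, of which those lacking an available protein sequence were dropped. The binding signal, a within-array Z-score, was averaged across arrays of the same protein sequence and across linkers. Negative scores can be read as non-binding.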

[2] = target: GalNAc(b1-4)GlcNAc(b1-2)Man(a1-3)[GalNAc(b1-4)GlcNAc(b1-2)Man(a1-6)]Man(b1-4)GlcNAc(b1-4)GlcNAc
In short: as §1

[3] = target: GalNAc(b1-4)GlcNAc(b1-3)GalNAc(b1-4)GlcNAc
In short: as §1

GalNAc(b1-4)GlcNAc6S = target: GalNAc(b1-4)GlcNAc6S
In short: as §1

GalNAc(b1-6)GalNAc = target: GalNAc(b1-6)GalNAc
In short: as §1

GalNAc3S(b1-4)GlcNAc = target: GalNAc3S(b1-4)GlcNAc
In short: as §1

GalNAc3S(b1-4)GlcNAc3S = target: GalNAc3S(b1-4)GlcNAc3S
In short: as §1

[4] = target: GalNAc3S(b1-4)[Fuc(a1-3)]GlcNAc
In short: as §1

GalNAc4S6S(b1-4)GlcNAc = target: GalNAc4S6S(b1-4)GlcNAc
In short: as §1

GalNAc6S(b1-4)GlcNAc = target: GalNAc6S(b1-4)GlcNAc
In short: as §1

Glc(a1-4)Glc = target: Glc(a1-4)Glc
In short: as §1

[5] = target: Glc(a1-4)Glc(a1-4)Glc(a1-4)Glc
In short: as §1

Glc(a1-6)Glc(a1-6)Glc = target: Glc(a1-6)Glc(a1-6)Glc
In short: as §1

[6] = target: Glc(a1-6)Glc(a1-6)Glc(a1-6)Glc
In short: as §1

Glc(b1-4)Glc = target: Glc(b1-4)Glc
In short: as §1

Glc(b1-6)Glc = target: Glc(b1-6)Glc
In short: as §1

GlcA(b1-3)Gal = target: GlcA(b1-3)Gal
In short: as §1

GlcA(b1-3)GlcNAc = target: GlcA(b1-3)GlcNAc
In short: as §1

GlcA(b1-6)Gal = target: GlcA(b1-6)Gal
In short: as §1

[7] = target: GlcA3S(b1-3)Gal(b1-4)GlcNAc(b1-2)Man
In short: as §1

[8] = target: GlcA3S(b1-3)Gal(b1-4)GlcNAc(b1-3)Gal(b1-4)Glc
In short: as §1

[9] = target: GlcNAc(a1-3)Gal(b1-4)GlcNAc
In short: as §1

[10] = target: GlcNAc(a1-4)Gal(b1-3)GlcNAc
In short: as §1

[11] = target: GlcNAc(a1-4)Gal(b1-4)GalNAc
In short: as §1

[12] = target: GlcNAc(a1-4)Gal(b1-4)GlcNAc
In short: as §1

[13] = target: GlcNAc(a1-4)Gal(b1-4)GlcNAc(b1-3)Gal(b1-4)Glc
In short: as §1

[14] = target: GlcNAc(a1-4)Gal(b1-4)GlcNAc(b1-3)Gal(b1-4)GlcNAc
In short: as §1

[15] = target: GlcNAc(a1-4)Gal(b1-4)GlcNAc(b1-3)Gal(b1-4)GlcNAc(b1-3)Gal(b1-4)GlcNAc
In short: as §1

[16] = target: GlcNAc(a1-4)Gal(b1-4)GlcNAc(b1-3)Gal(b1-4)[Fuc(a1-3)]GlcNAc(b1-3)Gal(b1-4)[Fuc(a1-3)]GlcNAc
In short: as §1

[17] = target: GlcNAc(a1-6)Gal(b1-4)GlcNAc
In short: as §1

[18] = target: GlcNAc(b1-2)Gal(b1-3)GalNAc
In short: as §1

[19] = target: GlcNAc(b1-2)Man(a1-3)[GlcNAc(b1-2)Man(a1-6)]Man(b1-4)GlcNAc(b1-4)GlcNAc
In short: as §1

[20] = target: GlcNAc(b1-2)Man(a1-3)[GlcNAc(b1-2)Man(a1-6)]Man(b1-4)GlcNAc(b1-4)[Fuc(a1-6)]GlcNAc
In short: as §1

[21] = target: GlcNAc(b1-2)Man(a1-3)[GlcNAc(b1-4)][GlcNAc(b1-2)Man(a1-6)]Man(b1-4)GlcNAc(b1-4)GlcNAc
In short: as §1

[22] = target: GlcNAc(b1-2)Man(a1-3)[GlcNAc(b1-4)][GlcNAc(b1-2)Man(a1-6)]Man(b1-4)GlcNAc(b1-4)[Fuc(a1-6)]GlcNAc
In short: as §1

[23] = target: GlcNAc(b1-2)[GlcNAc(b1-4)]Man(a1-3)[GlcNAc(b1-2)Man(a1-6)]Man(b1-4)GlcNAc(b1-4)GlcNAc
In short: as §1

[24] = target: GlcNAc(b1-2)[GlcNAc(b1-4)]Man(a1-3)[GlcNAc(b1-4)][GlcNAc(b1-2)Man(a1-6)]Man(b1-4)GlcNAc(b1-4)GlcNAc
In short: as §1

[25] = target: GlcNAc(b1-2)[GlcNAc(b1-4)]Man(a1-3)[GlcNAc(b1-4)][GlcNAc(b1-2)[GlcNAc(b1-6)]Man(a1-6)]Man(b1-4)GlcNAc(b1-4)GlcNAc
In short: as §1

[26] = target: GlcNAc(b1-2)[GlcNAc(b1-4)]Man(a1-3)[GlcNAc(b1-4)][GlcNAc(b1-2)[GlcNAc(b1-6)]Man(a1-6)]Man(b1-4)GlcNAc(b1-4)[Fuc(a1-6)]GlcNAc
In short: as §1

[27] = target: GlcNAc(b1-2)[GlcNAc(b1-6)]Man(a1-6)[GlcNAc(b1-2)Man(a1-3)]Man(b1-4)GlcNAc(b1-4)GlcNAc
In short: as §1

[28] = target: GlcNAc(b1-2)[GlcNAc(b1-6)]Man(a1-6)[GlcNAc(b1-2)Man(a1-3)]Man(b1-4)GlcNAc(b1-4)[Fuc(a1-6)]GlcNAc
In short: as §1

[29] = target: GlcNAc(b1-2)[GlcNAc(b1-6)]Man(a1-6)[GlcNAc(b1-4)][GlcNAc(b1-2)Man(a1-3)]Man(b1-4)GlcNAc(b1-4)GlcNAc
In short: as §1

GlcNAc(b1-3)Fuc = target: GlcNAc(b1-3)Fuc
In short: as §1

GlcNAc(b1-3)Gal = target: GlcNAc(b1-3)Gal
In short: as §1

[30] = target: GlcNAc(b1-3)Gal(b1-3)GalNAc
In short: as §1

B1: Vd7LysM (Verticillium dahliae) (protein)
chain: RRGPEPKYPPAAGTSSYCSYWVDYEGDKSCSRVLEDNVVVLKDFARWNPTVGADCSGIKAGNSYCVEAFGEPEPIEVTTTTRAATTTTQPTATTTTFANGIATPQPTQSGMVTNCNKFHWIAEGVSCSQVISFQKITLADFVKWNPSVKSDCSGMWAGVNVCVGVVGSSTDTAKPTTTAPSNGVVTPQPTQPSMVTNCNKFHWIAKGVTCQQVISYQKISLADFVKWNPSVLSDCSGMWAEVQVCVGVIGSTPTTLATTTTTAGNGVSTPLPTQPGMVTNCAKFHWVAKGVTCNQIYSFQKITLEQFVSYNPTVKSDCSGMQAEVQVCVGLIAGTTPTTTRPPTTTAPGNGVSTPQPTQPGMVTNCAKFHWVAKGVTCNQIYSFQKITLEQFVSFNPTVKSDCTGMQAEVNVCVGLIGGNPTPTQTGNGIATPTPIQPGMVSNCKKFHWIAQGVTCQQVISFQKITLADFVKWNTGVGSDCRTMWAETNVCVGV
- glycan array binding signal (z-score) [1]: -0.164
- glycan array binding signal (z-score) [2]: -1.23
- glycan array binding signal (z-score) [3]: -0.179
- glycan array binding signal (z-score) (GalNAc(b1-4)GlcNAc6S): 0.577
- glycan array binding signal (z-score) (GalNAc(b1-6)GalNAc): 0.192
- glycan array binding signal (z-score) (GalNAc3S(b1-4)GlcNAc): 1.75
- glycan array binding signal (z-score) (GalNAc3S(b1-4)GlcNAc3S): 0.948
- glycan array binding signal (z-score) [4]: 0.601
- glycan array binding signal (z-score) (GalNAc4S6S(b1-4)GlcNAc): -1.09
- glycan array binding signal (z-score) (GalNAc6S(b1-4)GlcNAc): 0.22
- glycan array binding signal (z-score) (Glc(a1-4)Glc): 0.352
- glycan array binding signal (z-score) [5]: 0.035
- glycan array binding signal (z-score) (Glc(a1-6)Glc(a1-6)Glc): -0.851
- glycan array binding signal (z-score) [6]: -1.92
- glycan array binding signal (z-score) (Glc(b1-4)Glc): 0.022
- glycan array binding signal (z-score) (Glc(b1-6)Glc): -1.06
- glycan array binding signal (z-score) (GlcA(b1-3)Gal): -0.323
- glycan array binding signal (z-score) (GlcA(b1-3)GlcNAc): -1.23
- glycan array binding signal (z-score) (GlcA(b1-6)Gal): -1.41
- glycan array binding signal (z-score) [7]: -1.1
- glycan array binding signal (z-score) [8]: -0.247
- glycan array binding signal (z-score) [9]: 0.462
- glycan array binding signal (z-score) [10]: -0.658
- glycan array binding signal (z-score) [11]: 0.043
- glycan array binding signal (z-score) [12]: 0.042
- glycan array binding signal (z-score) [13]: -1.13
- glycan array binding signal (z-score) [14]: 0.606
- glycan array binding signal (z-score) [15]: -0.633
- glycan array binding signal (z-score) [16]: 1.23
- glycan array binding signal (z-score) [17]: -0.348
- glycan array binding signal (z-score) [18]: 0.746
- glycan array binding signal (z-score) [19]: -0.761
- glycan array binding signal (z-score) [20]: 1
- glycan array binding signal (z-score) [21]: -0.559
- glycan array binding signal (z-score) [22]: -0.264
- glycan array binding signal (z-score) [23]: -0.036
- glycan array binding signal (z-score) [24]: -1.69
- glycan array binding signal (z-score) [25]: 0.565
- glycan array binding signal (z-score) [26]: -0.828
- glycan array binding signal (z-score) [27]: -0.461
- glycan array binding signal (z-score) [28]: 0.907
- glycan array binding signal (z-score) [29]: 1.31
- glycan array binding signal (z-score) (GlcNAc(b1-3)Fuc): -1.11
- glycan array binding signal (z-score) (GlcNAc(b1-3)Gal): -1.48
- glycan array binding signal (z-score) [30]: 1.01

From the supplement of paper PMC8728848
